Test results taken from PubChem BioAssay AID2685 (National Center for Advancing Translational Sciences (NCATS), 2010).
The other results are listed elsewhere or left out. These are further read-outs of the screen, such as a control signal, another cell line or another target. No call is given for them. Most of these compounds were active or inconclusive in the main read-out, so they are no random draw. Potencies come from curve fits of mixed quality, noted in brackets.

Test: qHTS Assay for Lipid Storage Modulators in Drosophila S3 Cells;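 for cell number change: cells counted by Cell Tracker Red CMTPX staining in the red channel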
Details: BODIPY lipid droplet fluorescence, 18-24 h; for cell number change: measured here: cell count max response, cells fed with added oleic acid
Method in brief: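 Drosophila S3 cells loaded with oleic acid (400 uM, as added) and compounds at several concentrations; lipid droplets imaged by 488-nm laser-scanning cytometry, 500–530 nm intensity and object ratio to cell channel. Percent activity normalized to 20 uM Triacsin C.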

[1] = measured here: lipid fluorescence (Fed channel) AC50, cells fed with added oleic acid
[2] = measured here: cell number channel AC50, cells fed with added oleic acid

| Structure (SMILES) | cell number change [%] | AC50 [1] | AC50 [2] |
| --- | --- | --- | --- |
| COC(=O)N/N=C/c1cccc(OCCSc2ccc(Cl)cc2)c1 | 18.6 | 5.8 µM [rising, partial curve, poor fit] | – |
| Clc1ccc(Sc2cnc3ccccc3n2)cc1 | 8.45 | – | 0.0366 µM [rising, full curve, poor fit] |
| COC(=O)/C(=N/Nc1ccccc1)N1CCCc2ccccc21 | 12 | – | – |
| Cc1ccc(NC(=O)C2CCCN(S(=O)(=O)c3cccnc3)C2)cc1C (centres undefined) | 44.5 | 11.6 µM [rising, partial curve] | 0.461 µM [rising, full curve] |
| O=C(NCCN1CCOCC1)C(=O)NCC1OCCN1S(=O)(=O)c1ccc(Br)cc1 (centres undefined) | – | 0.708 µM [rising, full curve, poor fit] | – |
| Cc1ccc(SCC(=O)OCC(=O)N2CCN(C(=O)c3ccco3)CC2)c(C)c1 | -24.4 | 4.11 µM [falling, single point] | – |
| Cc1oc(-c2ccccc2)nc1C(=O)OCC(=O)NC(=O)NCC(C)C | 8.54 | 2.06 µM [rising, partial curve] | – |
| COC(=O)c1c(NC(=O)COC(=O)Cn2cnc3ccccc32)sc(C)c1C | 8.27 | 2.06 µM [rising, partial curve] | – |
| CCC(C)Sc1ccc([C@H]2N[C@@](Cc3ccccc3)(C(=O)OC)[C@H]3C(=O)N(CC)C(=O)[C@@H]23)cc1OC (some centres undefined) | -11 | – | – |
| Cc1ccnc(NC(=S)NC(=O)/C=C/c2ccco2)c1 | 17.4 | – | – |
| CCC(CC)NC(=O)COC(=O)c1ccc(OCc2ccc(C(C)=O)cc2OC)c(OC)c1 | 25.8 | 2.91 µM [rising, partial curve] | 1.84 µM [rising, partial curve] |
| COc1ccc(NC(=O)Cc2ccccc2)cn1 | 5.44 | 1.03 µM [rising, full curve, poor fit] | – |
| CCOC(=O)C(CCCCCOc1ccccc1[N+](=O)[O-])C(=O)OCC | -42.7 | 29.1 µM [falling, single point] | 29.1 µM [falling, single point] |
| CSc1ccc(S(=O)(=O)Nc2c(C)n(C)n(-c3ccccc3)c2=O)cc1 | 1.64 | 0.259 µM [rising, full curve, poor fit] | – |
| Cc1ccc(-c2cn3cccnc3n2)cc1NC(=O)c1ccc(Br)o1 | – | 1.3 µM [rising, full curve] | 6.51 µM [rising, partial curve, poor fit] |
| CC(C)NC(=S)NN=C1CCC(c2ccccc2)CC1 (centres undefined) | -30.3 | 29.1 µM [falling, partial curve, poor fit] | 18.4 µM [falling, single point] |
| COC(=O)c1cc(NC(=O)Nc2cccc(Cl)c2)ccc1Cl | -15.3 | 25.9 µM [falling, single point] | – |
| O=C(CSc1nnc(CNc2cccc(C(F)(F)F)c2)n1Cc1ccco1)NCc1ccco1 | 22.5 | 29.1 µM [falling, single point] | – |
| CCCn1nnc(NC(=O)c2sc3ccccc3c2Cl)n1 | 3.92 | 2.59 µM [rising, single point] | – |
| O=C(NCCCCNC(=O)C1CCCC1)C1CCCC1 | -24.2 | 1.64 µM [falling, partial curve] | – |
| Cc1cccc(-n2nnc(C(=O)NCc3ccccn3)c2N)c1 | – | 4.11 µM [rising, single point] | 2.59 µM [rising, partial curve] |
| COc1ccc(C2CC(c3cccs3)=NN2C(=O)CSc2nc3ccccc3s2)cc1 (centres undefined) | -48.4 | 11.6 µM [falling, partial curve] | 11.6 µM [falling, partial curve] |
| CS(=O)(=O)N(Cc1ccc(Cl)cc1)c1ccc(C(=O)NCCSCc2ccco2)cc1 | 24.8 | 6.51 µM [rising, single point] | – |
| CCOC(=O)c1c(C)[nH]c(C)c1C(=O)CSc1nnc(-c2cc(OC)c(OC)c(OC)c2)o1 | – | 29.1 µM [rising, single point] | 0.461 µM [rising, partial curve, poor fit] |

As entered above:
`COC(=O)N/N=C/c1cccc(OCCSc2ccc(Cl)cc2)c1` | cell number change [%]: 18.6
`O=C(NCCCCNC(=O)C1CCCC1)C1CCCC1` | AC50 [1]: 1.64 µM [falling, partial curve]
